{"source": "PubChem BioAssay AID1259254 (NCATS, 2017)", "aim": "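Genome-wide screen for genes that prevent DNA re-replication in cancer cells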 (primary screen)", "cell system": "human HCT116 colorectal cancer cells", "reagent": "single siRNA against human genes", "duration": "3 days", "measurement": "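Nuclei stained with Hoechst and imaged; cell-cycle phase assigned by DNA content; G2 share scaled per plate, non-targeting siRNA 0%, GMNN siRNA 100%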", "direction": "G2 robust z-score and G2 cells, % of GMNN control: higher = more G2 cells, more excess DNA replication", "rule for the call": "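Active siRNAs have a G2 robust z of 5 or more median absolute deviations over the median, which in these data means about 38% or higher of GMNN control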", "note": "Here is a random part of about 59,000 reagents. In the full data, about 1,550 (2.6%) were called active. 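G2 share is only a proxy for re-replication; each gene was hit by three separate siRNAs, and active genes were retested.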 Further read-outs or replicates are left out here. Not given: the amount of reagent."}
{"gene":"LINC00607 (GeneID 646324)","PubChem SID":"SID160769837","G2 robust z-score":0.383,"G2 cells, % of GMNN control":5.66,"outcome":"inactive"}
{"gene":"LINC00607 (GeneID 646324)","PubChem SID":"SID160769838","G2 robust z-score":-0.396,"G2 cells, % of GMNN control":0.18,"outcome":"inactive"}
{"gene":"LINC00607 (GeneID 646324)","PubChem SID":"SID160769839","G2 robust z-score":-0.963,"G2 cells, % of GMNN control":-3.81,"outcome":"inactive"}
{"gene":"RPL27 (GeneID 6155)","PubChem SID":"SID160716077","G2 robust z-score":4.94,"G2 cells, % of GMNN control":37.7,"outcome":"inactive"}
{"gene":"RPL27 (GeneID 6155)","PubChem SID":"SID160716078","G2 robust z-score":3.21,"G2 cells, % of GMNN control":25.6,"outcome":"inactive"}
{"gene":"RPL27 (GeneID 6155)","PubChem SID":"SID160733712","G2 robust z-score":3.25,"G2 cells, % of GMNN control":25.9,"outcome":"inactive"}
{"gene":"COMMD8 (GeneID 54951)","PubChem SID":"SID160742579","G2 robust z-score":-0.943,"G2 cells, % of GMNN control":-3.66,"outcome":"inactive"}
{"gene":"COMMD8 (GeneID 54951)","PubChem SID":"SID160742580","G2 robust z-score":-0.00309,"G2 cells, % of GMNN control":2.95,"outcome":"inactive"}
{"gene":"COMMD8 (GeneID 54951)","PubChem SID":"SID160742581","G2 robust z-score":-0.761,"G2 cells, % of GMNN control":-2.39,"outcome":"inactive"}
{"gene":"WHAMM (GeneID 123720)","PubChem SID":"SID160732393","G2 robust z-score":-0.961,"G2 cells, % of GMNN control":-3.79,"outcome":"inactive"}
{"gene":"WHAMM (GeneID 123720)","PubChem SID":"SID160756094","G2 robust z-score":0.21,"G2 cells, % of GMNN control":4.45,"outcome":"inactive"}
{"gene":"WHAMM (GeneID 123720)","PubChem SID":"SID160756095","G2 robust z-score":-0.927,"G2 cells, % of GMNN control":-3.56,"outcome":"inactive"}

3 entries from above, ordered by “G2 cells, % of GMNN control”, low to high.
{"gene":"LINC00607 (GeneID 646324)","PubChem SID":"SID160769839","G2 robust z-score":-0.963,"G2 cells, % of GMNN control":-3.81,"outcome":"inactive"}
{"gene":"RPL27 (GeneID 6155)","PubChem SID":"SID160716078","G2 robust z-score":3.21,"G2 cells, % of GMNN control":25.6,"outcome":"inactive"}
{"gene":"RPL27 (GeneID 6155)","PubChem SID":"SID160716077","G2 robust z-score":4.94,"G2 cells, % of GMNN control":37.7,"outcome":"inactive"}

The listing continues.
{"gene":"CIROZ (GeneID 148345)","PubChem SID":"SID160732555","G2 robust z-score":-0.549,"G2 cells, % of GMNN control":-0.892,"outcome":"inactive"}
{"gene":"CIROZ (GeneID 148345)","PubChem SID":"SID160758691","G2 robust z-score":0.429,"G2 cells, % of GMNN control":5.98,"outcome":"inactive"}
{"gene":"CIROZ (GeneID 148345)","PubChem SID":"SID160758692","G2 robust z-score":-0.0668,"G2 cells, % of GMNN control":2.5,"outcome":"inactive"}
{"gene":"TSPAN32 (GeneID 10077)","PubChem SID":"SID160725048","G2 robust z-score":-0.138,"G2 cells, % of GMNN control":1.99,"outcome":"inactive"}
{"gene":"TSPAN32 (GeneID 10077)","PubChem SID":"SID160725058","G2 robust z-score":-0.255,"G2 cells, % of GMNN control":1.17,"outcome":"inactive"}
{"gene":"TSPAN32 (GeneID 10077)","PubChem SID":"SID160725063","G2 robust z-score":5.5,"G2 cells, % of GMNN control":41.7,"outcome":"active"}
{"gene":"OR7E85BP (GeneID 650293)","PubChem SID":"SID160770498","G2 robust z-score":-0.456,"G2 cells, % of GMNN control":-0.238,"outcome":"inactive"}
{"gene":"OR7E85BP (GeneID 650293)","PubChem SID":"SID160770499","G2 robust z-score":1.42,"G2 cells, % of GMNN control":13,"outcome":"inactive"}
{"gene":"OR7E85BP (GeneID 650293)","PubChem SID":"SID160770500","G2 robust z-score":1.63,"G2 cells, % of GMNN control":14.4,"outcome":"inactive"}
{"gene":"ETV1 (GeneID 2115)","PubChem SID":"SID160730773","G2 robust z-score":-0.553,"G2 cells, % of GMNN control":-0.923,"outcome":"inactive"}
{"gene":"ETV1 (GeneID 2115)","PubChem SID":"SID160762197","G2 robust z-score":-0.212,"G2 cells, % of GMNN control":1.48,"outcome":"inactive"}
{"gene":"ETV1 (GeneID 2115)","PubChem SID":"SID160762207","G2 robust z-score":-0.163,"G2 cells, % of GMNN control":1.82,"outcome":"inactive"}
